# According to the supplement of paper PMC8728848:
# The list shows a part of the results.
# Key:
# Assay in all cases: glycan array binding signal (z-score within array); higher = stronger binding
# Conditions in all cases: glycan notation: IUPAC condensed, linker removed
# [1] = target: Fuc(a1-3)[Gal3S(b1-4)]GlcNAc
# Summary of the method: (§1)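 Columns mapping to the same glycan were averaged after glycan names were converted to IUPAC-condensed notation. The data come from 3228 arrays in the Consortium for Functional Glycomics database, limited to those with an available protein sequence. Binding is reported as a within-array Z-score averaged across arrays of one protein sequence and across linkers.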
# [2] = target: Fuc(a1-3)[Gal3S(b1-4)]GlcNAc6S
# Summary of the method: as §1
# [3] = target: Fuc(a1-3)[GalNAc(b1-4)]GlcNAc
# Summary of the method: as §1
# [4] = target: Fuc(a1-3)[GalNAc(b1-4)]GlcNAc6S
# Summary of the method: as §1
# Fuc(a1-4)GlcNAc = target: Fuc(a1-4)GlcNAc
# Summary of the method: as §1
# Fuc(b1-3)GlcNAc = target: Fuc(b1-3)GlcNAc
# Summary of the method: as §1
# Gal(a1-2)Gal = target: Gal(a1-2)Gal
# Summary of the method: as §1
# Gal(a1-3)Gal = target: Gal(a1-3)Gal
# Summary of the method: as §1
# Gal(a1-3)Gal(b1-3)GlcNAc = target: Gal(a1-3)Gal(b1-3)GlcNAc
# Summary of the method: as §1
# [5] = target: Gal(a1-3)Gal(b1-3)GlcNAc(b1-2)Man
# Summary of the method: as §1
# [6] = target: Gal(a1-3)Gal(b1-3)GlcNAc(b1-2)Man(a1-3)[Gal(a1-3)Gal(b1-3)GlcNAc(b1-2)Man(a1-6)]Man(b1-4)GlcNAc(b1-4)GlcNAc
# Summary of the method: as §1
# [7] = target: Gal(a1-3)Gal(b1-3)GlcNAc(b1-3)GalNAc
# Summary of the method: as §1
# [8] = target: Gal(a1-3)Gal(b1-3)GlcNAc(b1-6)GalNAc
# Summary of the method: as §1
# [9] = target: Gal(a1-3)Gal(b1-3)[Fuc(a1-4)]GlcNAc(b1-2)Man(a1-3)[Gal(a1-3)Gal(b1-3)[Fuc(a1-4)]GlcNAc(b1-2)Man(a1-6)]Man(b1-4)GlcNAc(b1-4)GlcNAc
# Summary of the method: as §1
# Gal(a1-3)Gal(b1-4)Glc = target: Gal(a1-3)Gal(b1-4)Glc
# Summary of the method: as §1
# Gal(a1-3)Gal(b1-4)GlcNAc = target: Gal(a1-3)Gal(b1-4)GlcNAc
# Summary of the method: as §1
# [10] = target: Gal(a1-3)Gal(b1-4)GlcNAc(b1-2)Man
# Summary of the method: as §1
# [11] = target: Gal(a1-3)Gal(b1-4)GlcNAc(b1-2)Man(a1-3)[Gal(a1-3)Gal(b1-4)GlcNAc(b1-2)Man(a1-6)]Man(b1-4)GlcNAc(b1-4)GlcNAc
# Summary of the method: as §1
# [12] = target: Gal(a1-3)Gal(b1-4)GlcNAc(b1-3)GalNAc
# Summary of the method: as §1
# [13] = target: Gal(a1-3)Gal(b1-4)GlcNAc(b1-6)GalNAc
# Summary of the method: as §1
# [14] = target: Gal(a1-3)Gal(b1-4)[Fuc(a1-3)]GlcNAc
# Summary of the method: as §1
# [15] = target: Gal(a1-3)Gal(b1-4)[Fuc(a1-3)]GlcNAc(b1-2)Man(a1-3)[Gal(a1-3)Gal(b1-4)[Fuc(a1-3)]GlcNAc(b1-2)Man(a1-6)]Man(b1-4)GlcNAc(b1-4)GlcNAc
# Summary of the method: as §1
# Gal(a1-3)GalNAc = target: Gal(a1-3)GalNAc
# Summary of the method: as §1
# [16] = target: Gal(a1-3)[Gal(a1-4)]Gal(b1-4)GlcNAc
# Summary of the method: as §1
# [17] = target: Gal(a1-4)Gal(b1-3)GlcNAc(b1-2)Man(a1-3)[Gal(a1-4)Gal(b1-3)GlcNAc(b1-2)Man(a1-6)]Man(b1-4)GlcNAc(b1-4)GlcNAc
# Summary of the method: as §1
# Gal(a1-4)Gal(b1-4)Glc = target: Gal(a1-4)Gal(b1-4)Glc
# Summary of the method: as §1
# Gal(a1-4)Gal(b1-4)GlcNAc = target: Gal(a1-4)Gal(b1-4)GlcNAc
# Summary of the method: as §1
# [18] = target: Gal(a1-4)Gal(b1-4)GlcNAc(b1-2)Man(a1-3)[Gal(a1-4)Gal(b1-4)GlcNAc(b1-2)Man(a1-6)]Man(b1-4)GlcNAc(b1-4)GlcNAc
# Summary of the method: as §1
# [19] = target: Gal(a1-4)Gal(b1-4)GlcNAc(b1-3)Gal(b1-4)Glc
# Summary of the method: as §1
# Gal(a1-4)GlcNAc = target: Gal(a1-4)GlcNAc
# Summary of the method: as §1
# Gal(a1-6)Glc = target: Gal(a1-6)Glc
# Summary of the method: as §1
# Gal(b1-2)Gal = target: Gal(b1-2)Gal
# Summary of the method: as §1
# Gal(b1-3)Gal = target: Gal(b1-3)Gal
# Summary of the method: as §1
# Gal(b1-3)Gal(b1-4)GlcNAc = target: Gal(b1-3)Gal(b1-4)GlcNAc
# Summary of the method: as §1
# [20] = target: Gal(b1-3)Gal(b1-4)GlcNAc(b1-2)Man(a1-3)[Gal(b1-3)Gal(b1-4)GlcNAc(b1-2)Man(a1-6)]Man(b1-4)GlcNAc(b1-4)GlcNAc
# Summary of the method: as §1
# Gal(b1-3)GalNAc = target: Gal(b1-3)GalNAc
# Summary of the method: as §1
# [21] = target: Gal(b1-3)GalNAc(a1-3)[Fuc(a1-2)]Gal(b1-4)Glc
# Summary of the method: as §1
# [22] = target: Gal(b1-3)GalNAc(a1-3)[Fuc(a1-2)]Gal(b1-4)GlcNAc
# Summary of the method: as §1
# Gal(b1-3)GalNAc(b1-3)Gal = target: Gal(b1-3)GalNAc(b1-3)Gal
# Summary of the method: as §1
# [23] = target: Gal(b1-3)GalNAc(b1-3)Gal(a1-4)Gal(b1-4)Glc
# Summary of the method: as §1
# [24] = target: Gal(b1-3)GalNAc(b1-4)Gal(b1-4)Glc
# Summary of the method: as §1
# [25] = target: Gal(b1-3)GalNAc(b1-4)[Neu5Ac(a2-3)]Gal(b1-4)Glc
# Summary of the method: as §1
# Gal(b1-3)GlcNAc = target: Gal(b1-3)GlcNAc
# Summary of the method: as §1
# [26] = target: Gal(b1-3)GlcNAc(a1-3)Gal(b1-4)GlcNAc
# Summary of the method: as §1
# [27] = target: Gal(b1-3)GlcNAc(a1-6)Gal(b1-4)GlcNAc
# Summary of the method: as §1
# Gal(b1-3)GlcNAc(b1-2)Man = target: Gal(b1-3)GlcNAc(b1-2)Man
# Summary of the method: as §1
# [28] = target: Gal(b1-3)GlcNAc(b1-2)Man(a1-3)[Gal(b1-3)GlcNAc(b1-2)Man(a1-6)]Man(b1-4)GlcNAc(b1-4)GlcNAc
# Summary of the method: as §1
# [29] = target: Gal(b1-3)GlcNAc(b1-2)Man(a1-3)[Gal(b1-3)GlcNAc(b1-2)Man(a1-6)]Man(b1-4)GlcNAc(b1-4)[Fuc(a1-6)]GlcNAc
# Summary of the method: as §1
# [30] = target: Gal(b1-3)GlcNAc(b1-2)Man(a1-3)[GlcNAc(b1-4)][Gal(b1-3)GlcNAc(b1-2)Man(a1-6)]Man(b1-4)GlcNAc(b1-4)GlcNAc
# Summary of the method: as §1
# [31] = target: Gal(b1-3)GlcNAc(b1-2)[Gal(b1-3)GlcNAc(b1-6)]Man(a1-6)[Gal(b1-3)GlcNAc(b1-2)Man(a1-3)]Man(b1-4)GlcNAc(b1-4)GlcNAc
# Summary of the method: as §1
# [32] = target: Gal(b1-3)GlcNAc(b1-3)Gal(b1-3)GlcNAc
# Summary of the method: as §1
# [33] = target: Gal(b1-3)GlcNAc(b1-3)Gal(b1-4)Glc
# Summary of the method: as §1
# [34] = target: Gal(b1-3)GlcNAc(b1-3)Gal(b1-4)GlcNAc
# Summary of the method: as §1
binder,measurement,setting,value
KILRGVCKKIMRTFLRRISKDILTGKK [NK2 (Sus scrofa)],glycan array binding signal (z-score),[1],0.36
same,glycan array binding signal (z-score),[2],1.58
same,glycan array binding signal (z-score),[3],0.101
same,glycan array binding signal (z-score),[4],0.323
same,glycan array binding signal (z-score),Fuc(a1-4)GlcNAc,-0.394
same,glycan array binding signal (z-score),Fuc(b1-3)GlcNAc,-0.41
same,glycan array binding signal (z-score),Gal(a1-2)Gal,-0.55
same,glycan array binding signal (z-score),Gal(a1-3)Gal,0.016
same,glycan array binding signal (z-score),Gal(a1-3)Gal(b1-3)GlcNAc,-0.154
same,glycan array binding signal (z-score),[5],-0.273
same,glycan array binding signal (z-score),[6],0.062
same,glycan array binding signal (z-score),[7],-0.544
same,glycan array binding signal (z-score),[8],0.652
same,glycan array binding signal (z-score),[9],0.189
same,glycan array binding signal (z-score),Gal(a1-3)Gal(b1-4)Glc,0.052
same,glycan array binding signal (z-score),Gal(a1-3)Gal(b1-4)GlcNAc,0.172
same,glycan array binding signal (z-score),[10],0.063
same,glycan array binding signal (z-score),[11],0.776
same,glycan array binding signal (z-score),[12],0.826
same,glycan array binding signal (z-score),[13],0.752
same,glycan array binding signal (z-score),[14],-1.01
same,glycan array binding signal (z-score),[15],0.385
same,glycan array binding signal (z-score),Gal(a1-3)GalNAc,-0.59
same,glycan array binding signal (z-score),[16],-0.12
same,glycan array binding signal (z-score),[17],0.677
same,glycan array binding signal (z-score),Gal(a1-4)Gal(b1-4)Glc,-0.166
same,glycan array binding signal (z-score),Gal(a1-4)Gal(b1-4)GlcNAc,-0.334
same,glycan array binding signal (z-score),[18],-0.052
same,glycan array binding signal (z-score),[19],0.785
same,glycan array binding signal (z-score),Gal(a1-4)GlcNAc,-0.801
same,glycan array binding signal (z-score),Gal(a1-6)Glc,-1.14
same,glycan array binding signal (z-score),Gal(b1-2)Gal,-0.908
same,glycan array binding signal (z-score),Gal(b1-3)Gal,-0.234
same,glycan array binding signal (z-score),Gal(b1-3)Gal(b1-4)GlcNAc,-0.475
same,glycan array binding signal (z-score),[20],-0.253
same,glycan array binding signal (z-score),Gal(b1-3)GalNAc,-0.35
same,glycan array binding signal (z-score),[21],-0.889
same,glycan array binding signal (z-score),[22],0.709
same,glycan array binding signal (z-score),Gal(b1-3)GalNAc(b1-3)Gal,-0.853
same,glycan array binding signal (z-score),[23],1.13
same,glycan array binding signal (z-score),[24],0.625
same,glycan array binding signal (z-score),[25],-0.531
same,glycan array binding signal (z-score),Gal(b1-3)GlcNAc,-0.745
same,glycan array binding signal (z-score),[26],0.076
same,glycan array binding signal (z-score),[27],0.363
same,glycan array binding signal (z-score),Gal(b1-3)GlcNAc(b1-2)Man,-0.625
same,glycan array binding signal (z-score),[28],0.159
same,glycan array binding signal (z-score),[29],0.131
same,glycan array binding signal (z-score),[30],1.74
same,glycan array binding signal (z-score),[31],0.125
same,glycan array binding signal (z-score),[32],-0.226
same,glycan array binding signal (z-score),[33],-0.675
same,glycan array binding signal (z-score),[34],-0.572

# In a second layout: results already given.
binder	measurement	setting	value
KILRGVCKKIMRTFLRRISKDILTGKK [NK2 (Sus scrofa)]	glycan array binding signal (z-score)	Gal(a1-3)Gal(b1-3)GlcNAc	-0.154
same	glycan array binding signal (z-score)	[5]	-0.273
